Measured values: patent publication US20220112270A1
Results are given in words; binding and its absence hold for the method and conditions named. Some entries that bind do so weakly or less than the wild type.

By UniProt entry, the sequences of proteins in these tests, tags left out. Residues count along the entry.
UniProt P00772, residues 27-266: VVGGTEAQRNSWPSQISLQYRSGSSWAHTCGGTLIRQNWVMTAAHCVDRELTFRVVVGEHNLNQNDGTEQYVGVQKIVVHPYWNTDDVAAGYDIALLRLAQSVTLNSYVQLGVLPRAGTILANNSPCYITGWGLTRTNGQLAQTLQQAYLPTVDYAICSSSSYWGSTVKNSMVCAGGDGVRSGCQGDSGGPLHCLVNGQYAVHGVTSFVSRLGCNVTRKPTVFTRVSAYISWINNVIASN
UniProt P01009, residues 25-418: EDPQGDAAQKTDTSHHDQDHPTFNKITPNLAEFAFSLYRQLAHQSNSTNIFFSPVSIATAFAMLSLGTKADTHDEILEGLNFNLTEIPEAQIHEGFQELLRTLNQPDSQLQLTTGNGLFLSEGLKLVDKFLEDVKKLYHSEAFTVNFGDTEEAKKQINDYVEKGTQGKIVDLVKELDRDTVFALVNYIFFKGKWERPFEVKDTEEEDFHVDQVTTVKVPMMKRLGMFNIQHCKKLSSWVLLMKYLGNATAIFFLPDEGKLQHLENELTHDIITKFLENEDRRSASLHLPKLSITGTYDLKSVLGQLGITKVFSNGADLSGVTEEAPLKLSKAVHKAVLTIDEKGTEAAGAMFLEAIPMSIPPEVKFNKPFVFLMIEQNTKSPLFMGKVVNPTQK

Experiments:
[1] = target: pancreatic elastase (E7885; Sigma Aldrich) (UniProt P00772); experiment: 7.5% SDS-PAGE, Coomassie Brilliant Blue R350
[2] = target: pancreatic elastase (E7885; Sigma Aldrich) (UniProt P00772); experiment: SDS-PAGE of reaction mixes
[3] = target: pancreatic elastase (E7885; Sigma Aldrich) (UniProt P00772); experiment: 7.5% SDS-PAGE of AAT incubated with elastase (FIG. 11D, Lane 2)
[4] = target: pancreatic elastase (E7885; Sigma Aldrich) (UniProt P00772); experiment: complex formation, SDS-PAGE (FIG. 11D)
[5] = target: pancreatic elastase (E7885; Sigma Aldrich) (UniProt P00772); experiment: 7.5% SDS-PAGE of AAT incubated with elastase (FIG. 11D, Lane 4)

Measured: binding

plasma-derived human alpha 1-antitrypsin (AAT) (from UniProt P01009 25-418)
binds: [1] | [2] | [3]

recombinant human alpha 1-antitrypsin (AAT) derived from recombinant CHO cells (from UniProt P01009 25-418)
not listed: [3]
binds: all other assays above
